Data set [1] concerns the target T1, CXCL9 (MIG) (Homo sapiens) (UniProt Q07325).
T1 sequence (looked up, limits assumed): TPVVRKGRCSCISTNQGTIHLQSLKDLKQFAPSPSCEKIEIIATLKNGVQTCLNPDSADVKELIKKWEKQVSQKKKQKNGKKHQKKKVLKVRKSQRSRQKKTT
As to the kind of experiment: flow cytometry. The conditions noted are these: indole-clicked EdU at all N [31,45,49,53 (indole-clicked EdU)]; without K+ and NH4OAc; 100 nM DNA; purified recombinant protein; label: 5' biotin or Cy5; single-stranded DNA; letters built from the parent sequence and the stated change; variant of G123 DNA. For orientation: In flow cytometry, cells or beads pass a laser one at a time.

Sequences of proteins named here, by UniProt entry; tags and fusion partners are left off. Residues count along the entry.
UniProt Q92583, 24-94: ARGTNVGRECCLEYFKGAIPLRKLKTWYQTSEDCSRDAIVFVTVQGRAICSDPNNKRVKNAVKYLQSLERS

For data set [2], the target named is T2, CXCL9, endogenous (macrophage supernatant) (Homo sapiens) (UniProt Q07325).
T2 sequence (looked up, limits assumed): T1 sequence (looked up, limits assumed)
As to the kind of experiment: flow cytometry. Particulars: indole-clicked EdU at all N [31,45,49,53 (indole-clicked EdU)]; 150 nM DNA; reduced vs recombinant CXCL9; protein in an extract; protein details: captured by anti-CXCL9 antibody on magnetic beads; label: 5' biotin or Cy5; single-stranded DNA; letters built from the parent sequence and the stated change; variant of G123 DNA.

The target of data set [3] is HSA (human serum albumin) (Homo sapiens) (UniProt P02768). As to the kind of experiment: ELONA. The conditions noted are these: indole-clicked EdU at all N [31,45,49,53 (indole-clicked EdU)]; DNA at 2x KD; purified native protein; protein details: Sigma-Aldrich; label: 5' biotin or Cy5; single-stranded DNA; letters built from the parent sequence and the stated change; variant of G123 DNA.

The target in data set [4] is T3, CCL22 (Homo sapiens) (UniProt O00626).
T3 sequence (looked up, limits assumed): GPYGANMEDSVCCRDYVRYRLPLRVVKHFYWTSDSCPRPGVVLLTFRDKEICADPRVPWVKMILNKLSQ
Nature of the data set: ELONA. The conditions noted are these: indole-clicked EdU at all N [31,45,49,53 (indole-clicked EdU)]; DNA at 2x KD; purified recombinant protein; protein details: BioLegend; label: 5' biotin or Cy5; single-stranded DNA; letters built from the parent sequence and the stated change; variant of G123 DNA.

Data set [5] concerns the target T4, sCD25 (soluble interleukin-2 receptor) (Homo sapiens) (UniProt P01589).
T4 sequence (looked up, limits assumed): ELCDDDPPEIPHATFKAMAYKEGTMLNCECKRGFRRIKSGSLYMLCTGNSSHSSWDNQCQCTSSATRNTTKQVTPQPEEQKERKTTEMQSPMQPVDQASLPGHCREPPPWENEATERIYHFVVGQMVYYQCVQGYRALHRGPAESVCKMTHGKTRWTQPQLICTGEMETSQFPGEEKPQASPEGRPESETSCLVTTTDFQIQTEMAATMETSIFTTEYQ
Nature of the data set: ELONA. Particulars: indole-clicked EdU at all N [31,45,49,53 (indole-clicked EdU)]; DNA at 2x KD; purified recombinant protein; protein details: Antikorper online; label: 5' biotin or Cy5; single-stranded DNA; letters built from the parent sequence and the stated change; variant of G123 DNA.

Data set [6] has as its target CCL17 (Homo sapiens) (UniProt Q92583). As to the kind of experiment: ELONA. The conditions noted are these: indole-clicked EdU at all N [31,45,49,53 (indole-clicked EdU)]; DNA at 2x KD; purified recombinant protein; protein details: BioLegend; label: 5' biotin or Cy5; single-stranded DNA; letters built from the parent sequence and the stated change; variant of G123 DNA.

Data set [7] has as its target CXCL10 (Homo sapiens) (UniProt P02778). As to the kind of experiment: ELONA. Particulars: indole-clicked EdU at all N [31,45,49,53 (indole-clicked EdU)]; DNA at 2x KD; purified recombinant protein; protein details: Cell guidance system; label: 5' biotin or Cy5; single-stranded DNA; letters built from the parent sequence and the stated change; variant of G123 DNA.
For data set [8], the target named is T5, CCL3 (Homo sapiens) (UniProt P10147).
T5 sequence (looked up, limits assumed): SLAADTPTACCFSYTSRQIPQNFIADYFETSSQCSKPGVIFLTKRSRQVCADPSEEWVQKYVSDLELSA
As to the kind of experiment: ELONA. The conditions noted are these: indole-clicked EdU at all N [31,45,49,53 (indole-clicked EdU)]; DNA at 2x KD; purified recombinant protein; protein details: Peprotech; label: 5' biotin or Cy5; single-stranded DNA; letters built from the parent sequence and the stated change; variant of G123 DNA.

Data set [9] has as its target CXCL1 (Homo sapiens) (UniProt P09341). Nature of the data set: ELONA. The conditions noted are these: indole-clicked EdU at all N [31,45,49,53 (indole-clicked EdU)]; DNA at 2x KD; purified recombinant protein; protein details: Cell guidance system; label: 5' biotin or Cy5; single-stranded DNA; letters built from the parent sequence and the stated change; variant of G123 DNA.

The target in data set [10] is T6, CRP (C-reactive protein) (Homo sapiens) (UniProt P02741).
T6 sequence (looked up, limits assumed): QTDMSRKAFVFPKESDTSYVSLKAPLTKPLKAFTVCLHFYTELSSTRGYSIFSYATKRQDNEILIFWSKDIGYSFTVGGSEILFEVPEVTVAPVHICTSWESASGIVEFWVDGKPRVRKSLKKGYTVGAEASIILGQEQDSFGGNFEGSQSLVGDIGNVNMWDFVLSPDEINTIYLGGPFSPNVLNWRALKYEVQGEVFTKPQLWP
Nature of the data set: ELONA. The conditions noted are these: indole-clicked EdU at all N [31,45,49,53 (indole-clicked EdU)]; DNA at 2x KD; purified native protein; protein details: BioRad; label: 5' biotin or Cy5; single-stranded DNA; letters built from the parent sequence and the stated change; variant of G123 DNA.

For at least one entry, the source does not settle the construct or the ends of the probe. For some of these results: No signal at the amounts used counts as a negative. For some of these results: Protein sequences can lack the tags named with them. For some of these results: Results from cells or extracts need not show a direct contact.

As to “CACGACGCAAGGGACCACAGGGAGGGAGGGTGGGCAAAGGGCCCTAAGTCCGTAACAAAAACACAGCACGACACCGCAGAGGCA [G123 In]”, the binding result in [1] is on record as “binds”; in data set [2] it was “binds”; in [3], “no binding”; in [4], “no binding”; in data set [5], “no binding”; in [6], “no binding”. Moreover, the binding result in [7], in data set [8], in data set [9] and in [10] was “no binding” each time.

For the origin of these results see patent publication US20230358760.
